Reference: article PMC8639990
No constants are given. Whether binding was seen depends on the method and setting. In cells and extracts the contact can be indirect. Some results given as binding are weak or reduced against the parent protein; the word gives no strength. Where a sequence is shown, tags or fusion partners need not be part of it. One block for each molecule: values may come before it.

Amino acid sequences for entries named in this document (tags omitted).
UniProt P28033: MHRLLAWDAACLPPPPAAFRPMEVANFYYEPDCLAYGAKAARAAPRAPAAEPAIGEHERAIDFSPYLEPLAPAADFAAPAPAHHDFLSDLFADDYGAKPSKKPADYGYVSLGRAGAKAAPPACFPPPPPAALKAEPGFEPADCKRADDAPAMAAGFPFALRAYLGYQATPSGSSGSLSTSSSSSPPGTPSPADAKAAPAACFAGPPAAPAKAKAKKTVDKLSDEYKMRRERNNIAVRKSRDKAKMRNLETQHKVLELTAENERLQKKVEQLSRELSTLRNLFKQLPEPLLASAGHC
UniProt Q8BZQ7: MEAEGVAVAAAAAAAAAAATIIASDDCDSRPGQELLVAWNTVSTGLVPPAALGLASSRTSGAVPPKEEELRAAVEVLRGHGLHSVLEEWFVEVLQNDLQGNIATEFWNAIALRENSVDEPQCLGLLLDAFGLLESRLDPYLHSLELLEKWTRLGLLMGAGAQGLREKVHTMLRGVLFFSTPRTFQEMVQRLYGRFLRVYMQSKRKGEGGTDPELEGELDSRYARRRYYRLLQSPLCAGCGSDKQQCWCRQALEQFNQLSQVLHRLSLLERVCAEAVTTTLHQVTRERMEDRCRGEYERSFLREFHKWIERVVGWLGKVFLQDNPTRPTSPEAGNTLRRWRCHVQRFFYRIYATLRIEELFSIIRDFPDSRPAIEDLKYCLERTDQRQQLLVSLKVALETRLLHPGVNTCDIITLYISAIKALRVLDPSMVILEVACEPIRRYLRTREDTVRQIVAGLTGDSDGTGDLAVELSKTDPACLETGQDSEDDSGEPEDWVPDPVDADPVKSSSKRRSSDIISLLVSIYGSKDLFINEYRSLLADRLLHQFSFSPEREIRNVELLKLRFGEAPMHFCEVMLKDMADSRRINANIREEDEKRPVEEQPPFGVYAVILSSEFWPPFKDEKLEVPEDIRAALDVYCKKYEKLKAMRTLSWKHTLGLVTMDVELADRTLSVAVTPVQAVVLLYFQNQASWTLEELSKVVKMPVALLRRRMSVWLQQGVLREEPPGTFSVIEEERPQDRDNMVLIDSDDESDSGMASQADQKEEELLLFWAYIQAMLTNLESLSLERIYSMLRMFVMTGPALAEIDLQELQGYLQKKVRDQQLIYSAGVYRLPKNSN
UniProt Q9CPX9: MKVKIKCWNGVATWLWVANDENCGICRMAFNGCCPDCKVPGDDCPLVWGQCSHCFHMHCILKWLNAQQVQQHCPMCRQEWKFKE
UniProt Q9JJ66: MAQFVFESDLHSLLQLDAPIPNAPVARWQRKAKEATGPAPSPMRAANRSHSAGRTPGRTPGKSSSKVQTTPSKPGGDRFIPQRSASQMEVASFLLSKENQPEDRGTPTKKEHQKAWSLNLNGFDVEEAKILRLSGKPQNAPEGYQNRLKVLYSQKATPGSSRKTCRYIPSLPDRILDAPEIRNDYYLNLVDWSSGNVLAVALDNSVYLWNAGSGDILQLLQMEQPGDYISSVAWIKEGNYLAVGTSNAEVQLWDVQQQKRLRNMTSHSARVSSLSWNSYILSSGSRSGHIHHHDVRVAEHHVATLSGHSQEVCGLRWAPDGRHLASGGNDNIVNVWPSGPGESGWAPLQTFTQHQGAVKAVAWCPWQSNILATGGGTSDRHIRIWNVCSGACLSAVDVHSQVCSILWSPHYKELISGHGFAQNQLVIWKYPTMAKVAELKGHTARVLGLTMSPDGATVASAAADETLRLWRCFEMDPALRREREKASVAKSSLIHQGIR

What was measured:
[1] = biological target: T1, V5-tagged SETD5 (SET domain-containing 5), wild type (mouse) (UniProt Q5XJV7); test: co-IP; whole-cell lysate or nuclear fraction of SETD5-V5-transduced 3T3-L1 preadipocytes; anti-V5 immunoprecipitation, immunoblot; before differentiation induction, after differentiation induction (ANAPC2, ANAPC11), or MDI 9 h then 10 μM MG132 12 h (CDC20)
T1 sequence: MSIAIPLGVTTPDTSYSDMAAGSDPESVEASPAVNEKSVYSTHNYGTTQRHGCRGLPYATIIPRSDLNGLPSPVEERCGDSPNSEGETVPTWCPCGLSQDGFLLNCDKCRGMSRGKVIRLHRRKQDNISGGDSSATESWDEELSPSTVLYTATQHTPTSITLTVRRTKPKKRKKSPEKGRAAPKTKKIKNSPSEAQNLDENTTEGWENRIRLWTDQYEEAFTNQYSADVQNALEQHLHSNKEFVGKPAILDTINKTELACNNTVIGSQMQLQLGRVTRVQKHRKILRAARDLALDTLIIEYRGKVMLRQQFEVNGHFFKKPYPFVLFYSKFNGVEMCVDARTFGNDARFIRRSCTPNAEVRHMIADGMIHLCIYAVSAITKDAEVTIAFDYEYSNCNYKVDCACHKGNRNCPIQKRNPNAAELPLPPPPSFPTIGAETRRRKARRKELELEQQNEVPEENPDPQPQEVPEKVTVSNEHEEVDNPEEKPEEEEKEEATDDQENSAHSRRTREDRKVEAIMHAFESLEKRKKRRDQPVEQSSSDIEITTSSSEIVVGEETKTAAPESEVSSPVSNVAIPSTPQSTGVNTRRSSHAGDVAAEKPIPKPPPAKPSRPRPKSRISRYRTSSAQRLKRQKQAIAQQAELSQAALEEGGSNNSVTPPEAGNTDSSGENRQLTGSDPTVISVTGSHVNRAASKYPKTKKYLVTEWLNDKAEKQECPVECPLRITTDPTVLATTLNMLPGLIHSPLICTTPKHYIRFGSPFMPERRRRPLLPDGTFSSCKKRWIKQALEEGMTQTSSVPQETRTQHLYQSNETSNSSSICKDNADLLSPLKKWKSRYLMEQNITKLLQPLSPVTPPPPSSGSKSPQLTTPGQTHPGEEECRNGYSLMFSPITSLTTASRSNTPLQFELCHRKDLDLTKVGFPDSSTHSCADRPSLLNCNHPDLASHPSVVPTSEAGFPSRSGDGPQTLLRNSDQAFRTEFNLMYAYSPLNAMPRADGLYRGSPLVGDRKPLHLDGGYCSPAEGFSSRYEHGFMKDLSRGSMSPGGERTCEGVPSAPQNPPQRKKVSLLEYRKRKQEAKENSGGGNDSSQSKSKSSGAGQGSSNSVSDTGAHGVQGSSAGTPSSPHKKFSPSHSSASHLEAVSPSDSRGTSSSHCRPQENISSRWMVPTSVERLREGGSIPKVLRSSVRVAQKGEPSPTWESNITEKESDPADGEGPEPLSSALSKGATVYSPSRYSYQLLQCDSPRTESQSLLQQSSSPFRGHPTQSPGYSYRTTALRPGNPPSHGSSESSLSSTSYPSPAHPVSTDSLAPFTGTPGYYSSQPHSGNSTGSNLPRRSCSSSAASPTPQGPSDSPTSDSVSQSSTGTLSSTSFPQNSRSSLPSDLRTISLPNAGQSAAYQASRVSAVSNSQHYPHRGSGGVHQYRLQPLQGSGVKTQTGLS

[2] = biological target: CCAAT/enhancer-binding protein β (C/EBPβ) (mouse (endogenous in 3T3-L1)) (UniProt P28033); test: co-IP; SETD5-V5-transduced 3T3-L1 preadipocytes cross-linked with 1.5 mM ethylene glycol bis(succinimidylsuccinate) and 1% formaldehyde; nuclear fraction; anti-C/EBPβ immunoprecipitation, de-crosslinked, immunoblot with anti-V5; 6 h of differentiation

binding [1]: binds
Molecule: ANAPC2 (from UniProt Q8BZQ7 1-837)

binding [1]: binds
Molecule: ANAPC11 (from UniProt Q9CPX9 1-84)

binding [1]: binds
Molecule: CDC20 (from UniProt Q9JJ66 1-499)

binding [2]: binds
B1: V5-tagged SETD5 (SET domain-containing 5), wild type (protein, UniProt Q5XJV7 1-1441)
chain: T1 sequence
